Laboratory results taken from PMC9023290.
These are yes or no findings as the source states them, for the method shown. In cells and extracts the contact can be indirect. Some results given as binding are weak or reduced against the parent protein; the word gives no strength. For part of these data: Tags and fused reporters may be left off the sequences shown. Values belong to the molecule of their own block, whether it stands above or below them.

Sequences of proteins named here, by UniProt entry; tags and fusion partners are left off.
UniProt P78527: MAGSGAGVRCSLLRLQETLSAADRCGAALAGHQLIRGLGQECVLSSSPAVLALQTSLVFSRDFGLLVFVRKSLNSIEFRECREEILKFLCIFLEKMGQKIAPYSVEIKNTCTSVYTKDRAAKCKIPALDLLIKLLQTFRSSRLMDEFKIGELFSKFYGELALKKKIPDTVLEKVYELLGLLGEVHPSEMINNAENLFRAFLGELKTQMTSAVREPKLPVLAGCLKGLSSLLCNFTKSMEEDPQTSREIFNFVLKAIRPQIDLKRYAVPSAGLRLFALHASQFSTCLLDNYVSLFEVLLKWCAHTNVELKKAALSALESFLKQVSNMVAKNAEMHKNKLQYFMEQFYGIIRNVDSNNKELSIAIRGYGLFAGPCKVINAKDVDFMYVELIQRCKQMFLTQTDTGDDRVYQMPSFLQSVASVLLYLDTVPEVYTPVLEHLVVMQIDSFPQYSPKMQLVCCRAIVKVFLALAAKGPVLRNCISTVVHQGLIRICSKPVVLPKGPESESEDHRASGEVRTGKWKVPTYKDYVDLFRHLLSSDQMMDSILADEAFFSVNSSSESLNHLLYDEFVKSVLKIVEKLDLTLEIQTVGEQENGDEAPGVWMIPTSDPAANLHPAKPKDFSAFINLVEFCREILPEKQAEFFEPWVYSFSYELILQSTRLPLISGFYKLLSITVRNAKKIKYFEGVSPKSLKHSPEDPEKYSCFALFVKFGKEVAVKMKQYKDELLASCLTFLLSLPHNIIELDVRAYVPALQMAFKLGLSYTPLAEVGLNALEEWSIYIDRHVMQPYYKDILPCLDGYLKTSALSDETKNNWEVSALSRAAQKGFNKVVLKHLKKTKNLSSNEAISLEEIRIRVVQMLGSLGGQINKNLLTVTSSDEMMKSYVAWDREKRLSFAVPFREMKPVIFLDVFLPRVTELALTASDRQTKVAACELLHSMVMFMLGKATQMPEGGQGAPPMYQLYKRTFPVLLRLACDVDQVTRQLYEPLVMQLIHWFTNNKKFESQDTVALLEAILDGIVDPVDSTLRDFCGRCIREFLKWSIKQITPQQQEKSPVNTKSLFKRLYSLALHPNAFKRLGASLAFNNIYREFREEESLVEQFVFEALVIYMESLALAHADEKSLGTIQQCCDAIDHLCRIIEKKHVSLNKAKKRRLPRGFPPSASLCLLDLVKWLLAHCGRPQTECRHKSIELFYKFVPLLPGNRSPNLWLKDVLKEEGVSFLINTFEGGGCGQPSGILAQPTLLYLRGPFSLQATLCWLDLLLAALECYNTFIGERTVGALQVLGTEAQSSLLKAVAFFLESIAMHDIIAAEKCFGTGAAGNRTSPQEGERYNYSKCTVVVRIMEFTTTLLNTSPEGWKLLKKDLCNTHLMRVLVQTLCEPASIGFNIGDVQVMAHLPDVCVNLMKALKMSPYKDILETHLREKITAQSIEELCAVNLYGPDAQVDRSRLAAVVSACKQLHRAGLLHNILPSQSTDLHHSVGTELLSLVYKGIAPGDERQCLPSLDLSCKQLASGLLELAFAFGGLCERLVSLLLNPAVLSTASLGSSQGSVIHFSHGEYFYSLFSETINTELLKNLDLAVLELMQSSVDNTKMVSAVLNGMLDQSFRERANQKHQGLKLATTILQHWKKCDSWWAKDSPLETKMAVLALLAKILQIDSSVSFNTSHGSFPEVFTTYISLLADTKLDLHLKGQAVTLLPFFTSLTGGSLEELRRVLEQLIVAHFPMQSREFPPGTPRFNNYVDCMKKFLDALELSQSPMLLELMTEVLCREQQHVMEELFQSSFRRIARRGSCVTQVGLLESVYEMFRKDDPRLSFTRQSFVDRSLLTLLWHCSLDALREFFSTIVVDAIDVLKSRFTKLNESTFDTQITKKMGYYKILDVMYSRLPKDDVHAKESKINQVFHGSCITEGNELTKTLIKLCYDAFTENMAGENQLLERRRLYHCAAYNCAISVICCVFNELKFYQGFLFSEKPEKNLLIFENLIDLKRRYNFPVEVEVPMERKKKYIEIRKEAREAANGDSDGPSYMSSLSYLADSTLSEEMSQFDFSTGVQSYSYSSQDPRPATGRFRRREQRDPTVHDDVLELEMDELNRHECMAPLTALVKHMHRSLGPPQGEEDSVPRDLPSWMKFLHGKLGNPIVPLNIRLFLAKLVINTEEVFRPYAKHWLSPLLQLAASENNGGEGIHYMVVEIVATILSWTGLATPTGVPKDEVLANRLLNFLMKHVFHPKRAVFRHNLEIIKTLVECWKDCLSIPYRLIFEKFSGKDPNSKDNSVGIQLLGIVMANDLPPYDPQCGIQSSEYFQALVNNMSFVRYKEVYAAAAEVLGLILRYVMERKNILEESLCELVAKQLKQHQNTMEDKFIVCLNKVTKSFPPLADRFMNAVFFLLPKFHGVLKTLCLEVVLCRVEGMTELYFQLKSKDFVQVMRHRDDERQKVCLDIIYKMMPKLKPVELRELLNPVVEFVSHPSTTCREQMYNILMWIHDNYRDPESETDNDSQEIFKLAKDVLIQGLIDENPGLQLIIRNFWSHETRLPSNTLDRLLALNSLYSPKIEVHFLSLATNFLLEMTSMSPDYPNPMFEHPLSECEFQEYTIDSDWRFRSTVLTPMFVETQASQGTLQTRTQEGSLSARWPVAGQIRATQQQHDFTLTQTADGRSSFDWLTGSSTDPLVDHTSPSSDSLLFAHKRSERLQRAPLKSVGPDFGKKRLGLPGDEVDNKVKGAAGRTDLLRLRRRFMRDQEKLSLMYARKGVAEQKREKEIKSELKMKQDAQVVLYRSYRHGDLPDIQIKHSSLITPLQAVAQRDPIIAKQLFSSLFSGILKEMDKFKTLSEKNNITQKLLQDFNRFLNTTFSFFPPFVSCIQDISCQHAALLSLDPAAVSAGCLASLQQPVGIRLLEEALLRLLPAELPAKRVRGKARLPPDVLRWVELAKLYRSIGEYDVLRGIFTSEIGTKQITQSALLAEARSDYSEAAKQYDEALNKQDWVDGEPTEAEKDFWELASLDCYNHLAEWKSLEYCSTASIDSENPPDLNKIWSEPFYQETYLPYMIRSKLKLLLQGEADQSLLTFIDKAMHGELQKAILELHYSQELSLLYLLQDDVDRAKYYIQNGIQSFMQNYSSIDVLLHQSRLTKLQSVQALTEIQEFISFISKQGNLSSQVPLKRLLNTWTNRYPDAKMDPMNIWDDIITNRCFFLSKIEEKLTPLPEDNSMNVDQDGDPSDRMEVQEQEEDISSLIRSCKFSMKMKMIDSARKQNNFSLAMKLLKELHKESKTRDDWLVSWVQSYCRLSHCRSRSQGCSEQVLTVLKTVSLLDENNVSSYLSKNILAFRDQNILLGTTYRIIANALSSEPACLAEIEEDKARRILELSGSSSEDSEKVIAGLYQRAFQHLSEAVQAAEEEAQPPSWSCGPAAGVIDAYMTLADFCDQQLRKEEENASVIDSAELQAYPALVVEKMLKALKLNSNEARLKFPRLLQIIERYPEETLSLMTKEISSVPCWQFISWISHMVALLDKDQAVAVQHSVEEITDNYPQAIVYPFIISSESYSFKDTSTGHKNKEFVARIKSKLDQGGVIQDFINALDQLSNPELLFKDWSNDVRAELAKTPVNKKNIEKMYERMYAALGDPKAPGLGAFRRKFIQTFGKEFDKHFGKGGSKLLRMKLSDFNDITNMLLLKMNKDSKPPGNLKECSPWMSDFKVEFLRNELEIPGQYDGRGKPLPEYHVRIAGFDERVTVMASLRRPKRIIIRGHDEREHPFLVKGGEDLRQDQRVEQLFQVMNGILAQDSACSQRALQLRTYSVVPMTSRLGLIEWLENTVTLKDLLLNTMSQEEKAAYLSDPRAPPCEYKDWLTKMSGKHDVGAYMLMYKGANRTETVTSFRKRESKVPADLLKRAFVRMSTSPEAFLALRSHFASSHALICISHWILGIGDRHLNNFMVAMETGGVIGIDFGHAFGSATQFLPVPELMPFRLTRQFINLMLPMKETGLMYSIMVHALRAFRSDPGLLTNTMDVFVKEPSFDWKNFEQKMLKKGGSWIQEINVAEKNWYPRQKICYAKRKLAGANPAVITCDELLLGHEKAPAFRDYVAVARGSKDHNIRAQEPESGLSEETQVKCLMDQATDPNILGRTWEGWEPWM

Experiments:
[1] = target: T1, ZMYM2 (construct not stated; Supplementary Figures S2B and S7B) (human) (UniProt Q9UBW7); assay: co-IP; IP western blotting of ZMYM2 co-immunoprecipitated proteins (Supplementary Figure S2B); HDAC2 as positive control; construct and cells not told
T1 sequence: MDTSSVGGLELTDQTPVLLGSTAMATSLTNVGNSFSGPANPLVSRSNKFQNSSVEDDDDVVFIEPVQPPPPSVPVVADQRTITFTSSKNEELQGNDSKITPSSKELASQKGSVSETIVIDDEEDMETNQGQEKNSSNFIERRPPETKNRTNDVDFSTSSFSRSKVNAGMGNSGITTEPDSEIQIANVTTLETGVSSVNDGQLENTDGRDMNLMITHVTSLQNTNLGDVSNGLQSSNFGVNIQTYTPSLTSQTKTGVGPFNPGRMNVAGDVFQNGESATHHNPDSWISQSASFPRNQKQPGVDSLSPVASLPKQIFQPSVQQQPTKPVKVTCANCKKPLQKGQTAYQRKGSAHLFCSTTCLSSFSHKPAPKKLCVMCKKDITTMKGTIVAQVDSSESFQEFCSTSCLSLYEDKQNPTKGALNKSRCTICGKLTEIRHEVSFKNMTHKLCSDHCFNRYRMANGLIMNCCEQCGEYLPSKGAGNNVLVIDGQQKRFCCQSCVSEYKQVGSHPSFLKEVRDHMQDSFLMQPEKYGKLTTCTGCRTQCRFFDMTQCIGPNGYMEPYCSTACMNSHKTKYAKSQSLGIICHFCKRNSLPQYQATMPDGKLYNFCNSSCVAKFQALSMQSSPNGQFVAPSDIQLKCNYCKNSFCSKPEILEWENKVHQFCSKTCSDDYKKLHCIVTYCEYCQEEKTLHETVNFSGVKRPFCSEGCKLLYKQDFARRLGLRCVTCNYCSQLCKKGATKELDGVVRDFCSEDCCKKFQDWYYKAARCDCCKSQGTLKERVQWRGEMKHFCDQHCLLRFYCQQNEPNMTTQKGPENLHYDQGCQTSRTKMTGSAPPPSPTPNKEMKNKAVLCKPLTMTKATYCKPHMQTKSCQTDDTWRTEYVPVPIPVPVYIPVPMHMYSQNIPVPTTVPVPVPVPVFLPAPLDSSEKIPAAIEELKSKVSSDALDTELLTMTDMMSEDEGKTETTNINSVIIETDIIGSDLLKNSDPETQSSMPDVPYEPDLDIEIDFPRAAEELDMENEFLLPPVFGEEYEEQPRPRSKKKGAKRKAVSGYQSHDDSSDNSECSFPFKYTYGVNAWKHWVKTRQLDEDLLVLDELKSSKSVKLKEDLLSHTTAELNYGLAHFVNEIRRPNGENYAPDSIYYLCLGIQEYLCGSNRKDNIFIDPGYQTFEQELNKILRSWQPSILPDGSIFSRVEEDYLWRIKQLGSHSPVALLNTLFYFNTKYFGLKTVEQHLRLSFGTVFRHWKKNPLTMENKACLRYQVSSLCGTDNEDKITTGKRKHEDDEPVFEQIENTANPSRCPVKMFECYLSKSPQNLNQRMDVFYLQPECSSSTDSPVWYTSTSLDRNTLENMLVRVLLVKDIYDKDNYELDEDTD

GFP-tagged ZMYM3 (human) = target: T2, GFP-tagged ZMYM3 (human) (UniProt Q14202); assay: co-IP; differentially SFB- and GFP-tagged ZMYM2 and ZMYM3 co-expressed in HEK293T; IP with anti-GFP beads (GFP-Trap) overnight at 4°C; NETN lysis buffer with 10 mM MgCl2 and TurboNuclease; western blot
T2 sequence: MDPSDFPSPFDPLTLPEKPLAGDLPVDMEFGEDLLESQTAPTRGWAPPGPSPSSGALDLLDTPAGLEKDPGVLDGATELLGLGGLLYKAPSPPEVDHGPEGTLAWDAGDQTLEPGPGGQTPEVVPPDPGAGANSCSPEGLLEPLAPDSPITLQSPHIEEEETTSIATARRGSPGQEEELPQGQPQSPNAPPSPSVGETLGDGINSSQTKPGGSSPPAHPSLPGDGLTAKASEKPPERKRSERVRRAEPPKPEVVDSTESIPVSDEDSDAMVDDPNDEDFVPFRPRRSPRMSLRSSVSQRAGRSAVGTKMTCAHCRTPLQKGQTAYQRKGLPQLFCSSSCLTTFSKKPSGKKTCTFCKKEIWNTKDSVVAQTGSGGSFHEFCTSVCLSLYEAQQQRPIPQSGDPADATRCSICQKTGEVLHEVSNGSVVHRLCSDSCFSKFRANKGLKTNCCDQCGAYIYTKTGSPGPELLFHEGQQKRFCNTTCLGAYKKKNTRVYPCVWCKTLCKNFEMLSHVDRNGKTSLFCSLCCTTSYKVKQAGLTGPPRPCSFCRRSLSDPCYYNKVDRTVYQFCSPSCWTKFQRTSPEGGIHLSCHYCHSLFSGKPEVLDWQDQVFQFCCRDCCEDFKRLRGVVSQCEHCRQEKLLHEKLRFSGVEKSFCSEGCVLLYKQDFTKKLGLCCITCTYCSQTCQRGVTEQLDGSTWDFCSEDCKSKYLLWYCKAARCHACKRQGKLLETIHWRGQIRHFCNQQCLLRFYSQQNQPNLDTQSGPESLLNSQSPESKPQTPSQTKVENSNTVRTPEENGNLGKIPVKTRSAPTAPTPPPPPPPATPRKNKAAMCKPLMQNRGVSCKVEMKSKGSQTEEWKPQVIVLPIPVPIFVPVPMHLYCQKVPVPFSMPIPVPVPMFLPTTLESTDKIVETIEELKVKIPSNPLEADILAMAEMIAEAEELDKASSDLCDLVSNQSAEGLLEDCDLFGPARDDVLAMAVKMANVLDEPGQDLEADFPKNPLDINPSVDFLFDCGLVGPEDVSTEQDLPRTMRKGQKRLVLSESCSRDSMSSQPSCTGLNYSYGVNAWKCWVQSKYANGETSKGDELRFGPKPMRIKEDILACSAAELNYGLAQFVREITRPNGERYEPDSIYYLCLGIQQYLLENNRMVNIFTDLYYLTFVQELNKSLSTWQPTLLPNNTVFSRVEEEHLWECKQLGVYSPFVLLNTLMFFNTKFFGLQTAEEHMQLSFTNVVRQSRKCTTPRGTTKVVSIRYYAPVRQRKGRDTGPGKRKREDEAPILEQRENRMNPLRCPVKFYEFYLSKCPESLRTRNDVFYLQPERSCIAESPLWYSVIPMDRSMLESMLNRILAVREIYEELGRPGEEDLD

GFP-tagged ZMYM2 (human) = target: T3, GFP-tagged ZMYM2 (human) (UniProt Q9UBW7); assay: as above
T3 sequence: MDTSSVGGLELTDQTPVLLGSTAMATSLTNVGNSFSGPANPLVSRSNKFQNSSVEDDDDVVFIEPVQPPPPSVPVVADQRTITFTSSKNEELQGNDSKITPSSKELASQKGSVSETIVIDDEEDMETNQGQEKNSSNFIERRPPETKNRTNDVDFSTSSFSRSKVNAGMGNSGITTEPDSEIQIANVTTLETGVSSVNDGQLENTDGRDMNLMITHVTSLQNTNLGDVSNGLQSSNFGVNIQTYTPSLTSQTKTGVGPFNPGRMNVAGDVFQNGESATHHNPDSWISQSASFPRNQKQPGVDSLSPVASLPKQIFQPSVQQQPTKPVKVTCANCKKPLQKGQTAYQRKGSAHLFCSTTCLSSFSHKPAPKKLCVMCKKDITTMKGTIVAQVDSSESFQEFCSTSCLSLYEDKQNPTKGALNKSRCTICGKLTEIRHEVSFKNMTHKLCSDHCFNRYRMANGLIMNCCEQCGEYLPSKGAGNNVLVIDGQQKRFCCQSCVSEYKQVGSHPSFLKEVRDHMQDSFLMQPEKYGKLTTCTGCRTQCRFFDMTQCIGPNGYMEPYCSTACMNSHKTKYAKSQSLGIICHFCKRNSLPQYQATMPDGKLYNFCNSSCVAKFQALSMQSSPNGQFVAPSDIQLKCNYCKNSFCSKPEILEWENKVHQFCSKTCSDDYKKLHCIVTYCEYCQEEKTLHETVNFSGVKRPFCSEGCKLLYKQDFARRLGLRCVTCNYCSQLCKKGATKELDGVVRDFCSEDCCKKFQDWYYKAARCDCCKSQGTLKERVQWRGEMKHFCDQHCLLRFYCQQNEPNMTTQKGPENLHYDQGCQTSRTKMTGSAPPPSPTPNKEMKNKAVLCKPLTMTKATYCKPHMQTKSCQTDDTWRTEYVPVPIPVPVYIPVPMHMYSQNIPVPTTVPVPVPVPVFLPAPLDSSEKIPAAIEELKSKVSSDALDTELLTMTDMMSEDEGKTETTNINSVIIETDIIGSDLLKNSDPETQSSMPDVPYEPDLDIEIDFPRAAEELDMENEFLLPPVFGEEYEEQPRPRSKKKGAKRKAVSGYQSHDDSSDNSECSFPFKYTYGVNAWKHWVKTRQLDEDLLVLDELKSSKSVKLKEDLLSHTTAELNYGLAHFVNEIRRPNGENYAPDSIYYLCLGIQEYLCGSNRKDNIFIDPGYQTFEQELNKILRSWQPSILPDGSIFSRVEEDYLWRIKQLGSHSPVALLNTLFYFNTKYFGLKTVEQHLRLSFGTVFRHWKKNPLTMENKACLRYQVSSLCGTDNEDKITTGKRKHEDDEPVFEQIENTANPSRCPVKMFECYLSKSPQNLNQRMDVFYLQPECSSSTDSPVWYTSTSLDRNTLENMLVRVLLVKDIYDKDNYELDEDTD

binding [1]: binds
Molecule: DNA-dependent protein kinase DNA-PK (PRKDC) (from UniProt P78527 1-4128) (enzyme)

binding (GFP-tagged ZMYM3 (human)): binds
B1: SFB-tagged ZMYM2 (protein, UniProt Q9UBW7 1-1377)
chain: MDTSSVGGLELTDQTPVLLGSTAMATSLTNVGNSFSGPANPLVSRSNKFQNSSVEDDDDVVFIEPVQPPPPSVPVVADQRTITFTSSKNEELQGNDSKITPSSKELASQKGSVSETIVIDDEEDMETNQGQEKNSSNFIERRPPETKNRTNDVDFSTSSFSRSKVNAGMGNSGITTEPDSEIQIANVTTLETGVSSVNDGQLENTDGRDMNLMITHVTSLQNTNLGDVSNGLQSSNFGVNIQTYTPSLTSQTKTGVGPFNPGRMNVAGDVFQNGESATHHNPDSWISQSASFPRNQKQPGVDSLSPVASLPKQIFQPSVQQQPTKPVKVTCANCKKPLQKGQTAYQRKGSAHLFCSTTCLSSFSHKPAPKKLCVMCKKDITTMKGTIVAQVDSSESFQEFCSTSCLSLYEDKQNPTKGALNKSRCTICGKLTEIRHEVSFKNMTHKLCSDHCFNRYRMANGLIMNCCEQCGEYLPSKGAGNNVLVIDGQQKRFCCQSCVSEYKQVGSHPSFLKEVRDHMQDSFLMQPEKYGKLTTCTGCRTQCRFFDMTQCIGPNGYMEPYCSTACMNSHKTKYAKSQSLGIICHFCKRNSLPQYQATMPDGKLYNFCNSSCVAKFQALSMQSSPNGQFVAPSDIQLKCNYCKNSFCSKPEILEWENKVHQFCSKTCSDDYKKLHCIVTYCEYCQEEKTLHETVNFSGVKRPFCSEGCKLLYKQDFARRLGLRCVTCNYCSQLCKKGATKELDGVVRDFCSEDCCKKFQDWYYKAARCDCCKSQGTLKERVQWRGEMKHFCDQHCLLRFYCQQNEPNMTTQKGPENLHYDQGCQTSRTKMTGSAPPPSPTPNKEMKNKAVLCKPLTMTKATYCKPHMQTKSCQTDDTWRTEYVPVPIPVPVYIPVPMHMYSQNIPVPTTVPVPVPVPVFLPAPLDSSEKIPAAIEELKSKVSSDALDTELLTMTDMMSEDEGKTETTNINSVIIETDIIGSDLLKNSDPETQSSMPDVPYEPDLDIEIDFPRAAEELDMENEFLLPPVFGEEYEEQPRPRSKKKGAKRKAVSGYQSHDDSSDNSECSFPFKYTYGVNAWKHWVKTRQLDEDLLVLDELKSSKSVKLKEDLLSHTTAELNYGLAHFVNEIRRPNGENYAPDSIYYLCLGIQEYLCGSNRKDNIFIDPGYQTFEQELNKILRSWQPSILPDGSIFSRVEEDYLWRIKQLGSHSPVALLNTLFYFNTKYFGLKTVEQHLRLSFGTVFRHWKKNPLTMENKACLRYQVSSLCGTDNEDKITTGKRKHEDDEPVFEQIENTANPSRCPVKMFECYLSKSPQNLNQRMDVFYLQPECSSSTDSPVWYTSTSLDRNTLENMLVRVLLVKDIYDKDNYELDEDTD

binding (GFP-tagged ZMYM2 (human)): binds
B2: SFB-tagged ZMYM3 (protein, UniProt Q14202 1-1370)
chain: MDPSDFPSPFDPLTLPEKPLAGDLPVDMEFGEDLLESQTAPTRGWAPPGPSPSSGALDLLDTPAGLEKDPGVLDGATELLGLGGLLYKAPSPPEVDHGPEGTLAWDAGDQTLEPGPGGQTPEVVPPDPGAGANSCSPEGLLEPLAPDSPITLQSPHIEEEETTSIATARRGSPGQEEELPQGQPQSPNAPPSPSVGETLGDGINSSQTKPGGSSPPAHPSLPGDGLTAKASEKPPERKRSERVRRAEPPKPEVVDSTESIPVSDEDSDAMVDDPNDEDFVPFRPRRSPRMSLRSSVSQRAGRSAVGTKMTCAHCRTPLQKGQTAYQRKGLPQLFCSSSCLTTFSKKPSGKKTCTFCKKEIWNTKDSVVAQTGSGGSFHEFCTSVCLSLYEAQQQRPIPQSGDPADATRCSICQKTGEVLHEVSNGSVVHRLCSDSCFSKFRANKGLKTNCCDQCGAYIYTKTGSPGPELLFHEGQQKRFCNTTCLGAYKKKNTRVYPCVWCKTLCKNFEMLSHVDRNGKTSLFCSLCCTTSYKVKQAGLTGPPRPCSFCRRSLSDPCYYNKVDRTVYQFCSPSCWTKFQRTSPEGGIHLSCHYCHSLFSGKPEVLDWQDQVFQFCCRDCCEDFKRLRGVVSQCEHCRQEKLLHEKLRFSGVEKSFCSEGCVLLYKQDFTKKLGLCCITCTYCSQTCQRGVTEQLDGSTWDFCSEDCKSKYLLWYCKAARCHACKRQGKLLETIHWRGQIRHFCNQQCLLRFYSQQNQPNLDTQSGPESLLNSQSPESKPQTPSQTKVENSNTVRTPEENGNLGKIPVKTRSAPTAPTPPPPPPPATPRKNKAAMCKPLMQNRGVSCKVEMKSKGSQTEEWKPQVIVLPIPVPIFVPVPMHLYCQKVPVPFSMPIPVPVPMFLPTTLESTDKIVETIEELKVKIPSNPLEADILAMAEMIAEAEELDKASSDLCDLVSNQSAEGLLEDCDLFGPARDDVLAMAVKMANVLDEPGQDLEADFPKNPLDINPSVDFLFDCGLVGPEDVSTEQDLPRTMRKGQKRLVLSESCSRDSMSSQPSCTGLNYSYGVNAWKCWVQSKYANGETSKGDELRFGPKPMRIKEDILACSAAELNYGLAQFVREITRPNGERYEPDSIYYLCLGIQQYLLENNRMVNIFTDLYYLTFVQELNKSLSTWQPTLLPNNTVFSRVEEEHLWECKQLGVYSPFVLLNTLMFFNTKFFGLQTAEEHMQLSFTNVVRQSRKCTTPRGTTKVVSIRYYAPVRQRKGRDTGPGKRKREDEAPILEQRENRMNPLRCPVKFYEFYLSKCPESLRTRNDVFYLQPERSCIAESPLWYSVIPMDRSMLESMLNRILAVREIYEELGRPGEEDLD
